# Test results published in publication PMC13393275.
# T1: FRS2-mNeonGreen (human) (UniProt Q8WU20)
# T1 sequence: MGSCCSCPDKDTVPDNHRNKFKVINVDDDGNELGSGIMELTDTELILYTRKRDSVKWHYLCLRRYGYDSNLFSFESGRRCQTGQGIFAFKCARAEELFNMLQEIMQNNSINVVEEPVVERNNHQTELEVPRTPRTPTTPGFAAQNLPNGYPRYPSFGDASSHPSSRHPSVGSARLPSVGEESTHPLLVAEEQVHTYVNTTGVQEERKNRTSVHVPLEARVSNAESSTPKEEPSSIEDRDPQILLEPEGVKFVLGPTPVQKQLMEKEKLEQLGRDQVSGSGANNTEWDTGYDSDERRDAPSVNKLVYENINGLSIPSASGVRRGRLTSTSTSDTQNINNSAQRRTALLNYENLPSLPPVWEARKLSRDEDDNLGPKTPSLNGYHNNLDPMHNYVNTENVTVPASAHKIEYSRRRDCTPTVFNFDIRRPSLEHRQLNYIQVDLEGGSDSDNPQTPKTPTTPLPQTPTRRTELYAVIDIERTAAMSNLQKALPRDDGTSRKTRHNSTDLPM
# B1: Argininosuccinate synthase (protein, UniProt P00966 1-412)
# chain: MSSKGSVVLAYSGGLDTSCILVWLKEQGYDVIAYLANIGQKEDFEEARKKALKLGAKKVFIEDVSREFVEEFIWPAIQSSALYEDRYLLGTSLARPCIARKQVEIAQREGAKYVSHGATGKGNDQVRFELSCYSLAPQIKVIAPWRMPEFYNRFKGRNDLMEYAKQHGIPIPVTPKNPWSMDENLMHISYEAGILENPKNQAPPGLYTKTQDPAKAPNTPDILEIEFKKGVPVKVTNVKDGTTHQTSLELFMYLNEVAGKHGVGRIDIVENRFIGMKSRGIYETPAGTILYHAHLDIEAFTMDREVRKIKQGLGLKFAELVYTGFWHSPECEFVRHCIAKSQERVEGKVQVSVLKGQVYILGRESPLSLYNEELVSMNVQGDYEPTDATGFININSLRLKEYHRLQSKVTAK
# B2: Phosphoserine aminotransferase (protein, UniProt Q9Y617 1-370)
# chain: MDAPRQVVNFGPGPAKLPHSVLLEIQKELLDYKGVGISVLEMSHRSSDFAKIINNTENLVRELLAVPDNYKVIFLQGGGCGQFSAVPLNLIGLKAGRCADYVVTGAWSAKAAEEAKKFGTINIVHPKLGSYTKIPDPSTWNLNPDASYVYYCANETVHGVEFDFIPDVKGAVLVCDMSSNFLSKPVDVSKFGVIFAGAQKNVGSAGVTVVIVRDDLLGFALRECPSVLEYKVQAGNSSLYNTPPCFSIYVMGLVLEWIKNNGGAAAMEKLSSIKSQTIYEIIDNSQGFYVCPVEPQNRSKMNIPFRIGNAKGDDALEKRFLDKALELNMLSLKGHRSVGGIRASLYNAVTIEDVQKLAAFMKKFLEMHQL
# Biological target: T1, FRS2-mNeonGreen (human)
# Test: affinity purification with mass spectrometry; mNeonGreen-Trap IP from bFGF-stimulated (50 ng/mL, 5 min) UW228 FRS2-mNG cells against UW228 WT; on-bead digestion, DIA LC-MS/MS, SAINTexpress; hits log2FC >= 1 and bFDR <= 0.05; n = 3
row,Binder,binding
1,B1,binds
2,B2,binds

# These are yes or no findings as the source states them, for the method shown. In cells and extracts the contact can be indirect. A yes stands for co-enrichment or nearness to the bait. Other partners may have been found.
